Results on 42 sequences are retold here after PMC7819943, “Rice protein-binding microarrays: a tool to detect cis-acting elements near promoter regions in rice”.

Some of the results follow.

This test addresses T1, OsSMF1 (Oryza sativa, UniProt Q6ZLB0 1-436).
T1 sequence: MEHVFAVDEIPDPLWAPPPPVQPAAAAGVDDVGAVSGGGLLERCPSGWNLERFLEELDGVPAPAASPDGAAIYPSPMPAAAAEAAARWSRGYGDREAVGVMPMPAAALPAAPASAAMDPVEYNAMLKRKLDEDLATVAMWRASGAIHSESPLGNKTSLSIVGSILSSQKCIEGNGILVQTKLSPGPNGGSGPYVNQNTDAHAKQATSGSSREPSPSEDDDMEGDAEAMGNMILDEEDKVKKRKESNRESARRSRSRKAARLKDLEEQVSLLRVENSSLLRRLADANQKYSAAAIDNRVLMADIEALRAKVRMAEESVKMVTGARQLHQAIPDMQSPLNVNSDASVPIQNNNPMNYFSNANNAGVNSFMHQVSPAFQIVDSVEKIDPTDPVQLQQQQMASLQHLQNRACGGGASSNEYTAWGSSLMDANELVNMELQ
The experiment in a line: protein-binding microarray (RPBM); PBS, 2% BSA, 51.3 ng/ul salmon testes DNA, 50 uM zinc acetate, 200 nM TF, 25 C, 1 h; high values mean tight binding. Particulars: protein: recombinant; tags: N-terminal polyhistidine and DsRed monomer fusion (pET32a); chain copies: 2; label: CyDye5-dUTP incorporated in the synthesized complementary strand; 3' TTTTT single-stranded linker to array surface; dsDNA, one strand shown. The essentials:
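Ni–NTA purification followed expression in E. coli BL21-CodonPlus of transcription factors fused N-terminally to a polyhistidine tag and DsRed. At 200 nM in PBS with 2% BSA, salmon testes DNA and 50 µM zinc acetate, the protein was incubated for 1 h at 25 °C with a custom Agilent array that had been primer-extended with Cy5-dUTP and blocked with 2% BSA. After washing, the array was read on an Axon 4000B scanner. The binding signal is per-feature fluorescence intensity in arbitrary units.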
As for “CCAACAGTAATTAAATGCAGATAAACAGAGATGAAATGGACGGAGTCACCTAGTGCAG”, the binding signal was 31500 fluorescence intensity (a.u.).

On to “GCCCGTGTGCCGCCACACGTGGCCCGTATGCGACAAGCCCCGGAGTCACCTAGTGCAG”, for which the binding signal was 5750 fluorescence intensity (a.u.).

Take “ATGCCTCCGTTGGGAGAGATGCCAACACGACACACCAGCTCGGAGTCACCTAGTGCAG”: the binding signal is 25800 fluorescence intensity (a.u.).

“TTAAAGACTCGTCGTAGGTTGGTTGTATCATACAACTTCGCGGAGTCACCTAGTGCAG”: the binding signal is 3160 fluorescence intensity (a.u.).

As for “TTTTACCAAGTCAGCTGGGACAGGAATTGGCATTGAGTTCCGGAGTCACCTAGTGCAG”, the binding signal is 12900 fluorescence intensity (a.u.).

Consider “ACGCCAAGTCATGTCATGCATGTACACTTCGTGCATGAATCGGAGTCACCTAGTGCAG”, for which the binding signal is 5170 fluorescence intensity (a.u.).

Consider “TGTATATCGTATATCCGATGTGACACGCCAAAACTTTACACGGAGTCACCTAGTGCAG”, for which the binding signal is 3150 fluorescence intensity (a.u.).

For “AAGGGAAGACTTCAACCCGGCCGCGGTTGGTGGCGCCATCCGGAGTCACCTAGTGCAG”, the binding signal was 3180 fluorescence intensity (a.u.).

Take “AAATTATGGTGTCACACTGGGCTGTCGTGTGGGCTAGATTCGGAGTCACCTAGTGCAG”: the binding signal is 3820 fluorescence intensity (a.u.).

Regarding “ACTGACCAGCCAACTGGGTTCATGGTTTGTTTGAAACATGCGGAGTCACCTAGTGCAG”, the binding signal is 3170 fluorescence intensity (a.u.).

On to “AAAGAAGCTAAGAGAGATCAAGTGATGTGGTCGTCGCCGTCGGAGTCACCTAGTGCAG”, for which the binding signal is 4320 fluorescence intensity (a.u.).

As for “CGACCTCGCTTGGCCGCATCCACCGACTTTCCACGCTCGCCGGAGTCACCTAGTGCAG”, the binding signal is 3650 fluorescence intensity (a.u.).

Turning to “ATGTACCGTTCACACCTATTTTATCACGTGTCCTTGTGCCCGGAGTCACCTAGTGCAG”, the binding signal was 4390 fluorescence intensity (a.u.).

As for “ACCAATAAATTCGACATAGCTGATACATTTTCAGATGCAACGGAGTCACCTAGTGCAG”, the binding signal was 3590 fluorescence intensity (a.u.).

As for “GGAAGGTGCTCAGGCAAATTGCTCGTGACAGGGAAGCAGCCGGAGTCACCTAGTGCAG”, the binding signal is 3540 fluorescence intensity (a.u.).

Regarding “CGTGTCCAGCCGACAGTATAGCTGAGCTGGCAGTCCGTTCCGGAGTCACCTAGTGCAG”, the binding signal is 14100 fluorescence intensity (a.u.).

Consider “TGTTTCTACCTGTTTTGTAGGGATGTGATGCGTCAGTTTTCGGAGTCACCTAGTGCAG”, for which the binding signal was 4620 fluorescence intensity (a.u.).

Take “AGCTGAGTCAGTGTGAGACCCACGTGTCAGAATGCCACTTCGGAGTCACCTAGTGCAG”: the binding signal is 12200 fluorescence intensity (a.u.).

Turning to “GCTTGCTGCTGCTGCTGCTGATAGTTTAGCTTGAGAGAGCCGGAGTCACCTAGTGCAG”, the binding signal was 22700 fluorescence intensity (a.u.).

In the case of “TGCAGTTCCTCACCAAAACGCCATCCCCATCCTCCCTGCCCGGAGTCACCTAGTGCAG”, the binding signal was 3680 fluorescence intensity (a.u.).

With “TGCTTGGTAAGGGTGAGGAAATAATGGCGTGACGAAAAGACGGAGTCACCTAGTGCAG”, the binding signal is 3610 fluorescence intensity (a.u.).

As for “TTAATTAGCATCAGCACCATCTAGCCATGTATGCAAACCCCGGAGTCACCTAGTGCAG”, the binding signal is 4080 fluorescence intensity (a.u.).

For “CAGCCAAAAGCCGTCCATGTCGTCGTGTCGATCAACCCACCGGAGTCACCTAGTGCAG”, the binding signal was 3880 fluorescence intensity (a.u.).

“ATTAACTACATTGCCATGTAGGACTTTTAGCTTACGTAACCGGAGTCACCTAGTGCAG”: the binding signal is 5050 fluorescence intensity (a.u.).

As for “CAACAATACAGTTATTGGTAATTACAAGCTACTAGTATACCGGAGTCACCTAGTGCAG”, the binding signal was 18600 fluorescence intensity (a.u.).

As to “GTCCGGGCCACCGTAAGCGGGTACGTGTCCACTGTCCAGACGGAGTCACCTAGTGCAG”, the binding signal was 4320 fluorescence intensity (a.u.).

On to “TTTCACTTTGACTAGAAGCACATGTCATCGATTTTCCTTCCGGAGTCACCTAGTGCAG”, for which the binding signal was 3980 fluorescence intensity (a.u.).

For “TTACACGGCCACGTTGGCTGGCGTCGCGGGCCTCGCCTCGCGGAGTCACCTAGTGCAG”, the binding signal was 6190 fluorescence intensity (a.u.).

As to “CACTTGCTCATTCAGCAGCAGCAGCAGCAGCATCAGCATCCGGAGTCACCTAGTGCAG”, the binding signal is 3710 fluorescence intensity (a.u.).

As for “TAACTTCATGACTGGTTTTCTTGGAATCTGCTTATCAGTTCGGAGTCACCTAGTGCAG”, the binding signal was 4540 fluorescence intensity (a.u.).

For the sequence “TGGCCAGACCAGCAACGATGATGTTCGAGCGTCATTCCCCCGGAGTCACCTAGTGCAG”, the binding signal was 3550 fluorescence intensity (a.u.).

In the case of “ACGGTGGAGTGGTCGAGTGGATAAGGATTCCACATCGACGCGGAGTCACCTAGTGCAG”, the binding signal is 3510 fluorescence intensity (a.u.).

Take “AAGCGCCAAGCCAGGCAGCTGAGTCAAACATACGCGGTCCCGGAGTCACCTAGTGCAG”: the binding signal is 4580 fluorescence intensity (a.u.).

In the case of “TGCTCCATTATTGTGCTCCATGTCGACACAAAGCGAACAACGGAGTCACCTAGTGCAG”, the binding signal is 3430 fluorescence intensity (a.u.).

For “AGTTATTTTGGTAGTCGAGAATTGTGATGTTATTTCATTCCGGAGTCACCTAGTGCAG”, the binding signal is 20400 fluorescence intensity (a.u.).

Consider “GGGATTAGGGATGTCATACATGACTCGACGCAGAGCTGAGCGGAGTCACCTAGTGCAG”, for which the binding signal was 4440 fluorescence intensity (a.u.).

As to “GATTAAAACCAAAACTCATGATGGAAGTGGATGCATTTGCCGGAGTCACCTAGTGCAG”, the binding signal is 25500 fluorescence intensity (a.u.).

Take “GGAGTTGGTAGCGGCATCAGATTAGTAAATTTTACCGCGGCGGAGTCACCTAGTGCAG”: the binding signal was 3910 fluorescence intensity (a.u.).

Turning to “ACCCACGCACTCACTGACGATGCAATGCGGCCATATGCTACGGAGTCACCTAGTGCAG”, the binding signal is 3240 fluorescence intensity (a.u.).

Consider “ATAAGTACGAATACTAAGTACGTGTGTGTTTGGAGGGTGTCGGAGTCACCTAGTGCAG”, for which the binding signal is 4340 fluorescence intensity (a.u.).

“CGTGGACCCACCTAGGTGGGGCCCACCGTCAGTGGGAGATCGGAGTCACCTAGTGCAG”: the binding signal was 3940 fluorescence intensity (a.u.).

In the case of “TAGGTTTGTCCTGAAAACCTTCCGTTTTGCCCACAAGACGCGGAGTCACCTAGTGCAG”, the binding signal was 5380 fluorescence intensity (a.u.).
